Laboratory results published in patent US11690824B2, “Antibacterial compounds” (THE GENERAL HOSPITAL CORPORATION, priority 2018, dated 2023).
Some entries share one result that the patent states for a list of compounds.

Tests used:
S. aureus (MRSA) MW2 = assay: Minimal inhibitory concentration (MIC) assay, micro-dilution; type: cell-based; conditions: growing S. aureus cells
Source text: Bacterial strains, growth conditions, and persister isolation. Methicillin-resistant S. aureus strains, MW2 BAA-1707, ATCC 33591, and JE2, methicillin-susceptible S. aureus strains, NCTC 8325, Newman, and ATCC 29213, vancomycin-resistant S. aureus strain, VRS1, Enterococcus faecium E007, vancomycin-resistant E. faecium strains, C68,^7 WB312, and WC196, Klebsiella pneumoniae WGLW2 (BEI Resources, Manassas, Va., USA), Acinetobacter baumannii ATCC 17978, Pseudomonas aeruginosa PA14, and Enterobacter aerogenes ATCC 13048 were used to test antimicrobial activity (Table 1). S. aureus strains were grown in tryptic soy broth (TSB) (BD, Franklin Lakes, N.J., USA), and E. faecium was grown in brain-heart infusion (BHI) broth (BD, Franklin Lakes, N.J., USA) at 37° C. K. pneumoniae, A. baumannii, P. aeruginosa, and E. aerogenes were grown in Luria Bertani (LB) broth (BD, Franklin Lakes, N.J., USA) at 37° C.
Minimal inhibitory concentration (MIC) assay. The MICS of antibiotics were determined by the standard micro-dilution method recommended by the Clinical and Laboratory Standards Institute. MIC assays were conducted in biological triplicate.

MRSA MW2 = assay: Antibiotic synergy test (checkerboard); type: cell-based, S. aureus; conditions: nTZDpa in combination with the named antibiotic
Description: Antibiotic synergy test. Antibiotic synergism was evaluated by the checkerboard method. Briefly, 2-fold serial dilutions of nTZDpa were combined with 2-fold serial dilutions of each other antibiotic, which created an 8×8 matrix in a 96-well microtiter plate. The fractional inhibitory concentration index (FICI) was calculated as follows: FICI=MIC of compound A in combination/MIC of compound A alone+MIC of compound B in combination/MIC of compound B alone. The interaction between two compounds was defined, as follows: synergy if FICI≤0.5, no interaction if 0.5<FICI≤4, and antagonism if FICI>4.

Structure (SMILES): O=C(O)c1c(OCc2ccccc2)c2cc(Cl)ccc2n1Cc1ccc(Cl)cc1 [Compound S15, 3-(benzyloxy)-5-chloro-1-(4-chlorobenzyl)-1H-indole-2-carboxylic acid]
- antibiotic activity / potency relative to nTZDpa (S. aureus (MRSA) MW2): less active than nTZDpa

Structure (SMILES): NC[C@H]1O[C@H](O[C@H]2[C@H](O)[C@@H](O[C@H]3O[C@H](CO)[C@@H](O)[C@H](N)[C@H]3O)[C@H](N)C[C@@H]2N)[C@H](O)[C@@H](O)[C@@H]1O [Kanamycin, kanamysin]
- FICI (fractional inhibitory concentration index) (MRSA MW2; synergy if FICI ≤ 0.5, listed as kanamycin): ≤ 0.5

Structure (SMILES): O=C(O)c1c(Oc2ccccc2)c2cc(Cl)ccc2n1CCc1ccc(Cl)cc1 [Compound S17, 5-chloro-1-(4-chlorophenethyl)-3-phenoxy-1H-indole-2-carboxylic acid]
- antibiotic activity / potency relative to nTZDpa (S. aureus (MRSA) MW2): less active than nTZDpa

Structure (SMILES): O=C(O)c1c(Oc2ccccc2)c2cc(Cl)ccc2n1-c1ccc(Cl)cc1 [Compound S16, 5-chloro-1-(4-chlorophenyl)-3-phenoxy-1H-indole-2-carboxylic acid]
- antibiotic activity / potency relative to nTZDpa (S. aureus (MRSA) MW2): less active than nTZDpa

Structure (SMILES): NC[C@H]1O[C@H](O[C@H]2[C@H](O)[C@@H](O[C@H]3O[C@H](CO)[C@@H](O)[C@H](N)[C@H]3O)[C@H](N)C[C@@H]2N)[C@H](N)C[C@@H]1O [Tobramycin, tobaramysin]
- FICI (fractional inhibitory concentration index) (MRSA MW2; synergy if FICI ≤ 0.5, listed as tobramycin): ≤ 0.5

Structure (SMILES): [H]/N=C(/N)N[C@H]1[C@H](O)[C@@H](O)[C@H](O[C@@H]2O[C@@H](C)[C@](O)(C=O)[C@H]2O[C@@H]2O[C@@H](CO)[C@H](O)[C@@H](O)[C@@H]2NC)[C@@H](N/C(N)=N\[H])[C@@H]1O [Streptomycin, streptomycin]
- FICI (fractional inhibitory concentration index) (MRSA MW2; synergy if FICI ≤ 0.5, listed as streptomycin): ≤ 0.5
